Assay results taken from publication PMC6769788.

By UniProt entry, the sequences of proteins in these tests, tags left out.
UniProt P60843, whole entry: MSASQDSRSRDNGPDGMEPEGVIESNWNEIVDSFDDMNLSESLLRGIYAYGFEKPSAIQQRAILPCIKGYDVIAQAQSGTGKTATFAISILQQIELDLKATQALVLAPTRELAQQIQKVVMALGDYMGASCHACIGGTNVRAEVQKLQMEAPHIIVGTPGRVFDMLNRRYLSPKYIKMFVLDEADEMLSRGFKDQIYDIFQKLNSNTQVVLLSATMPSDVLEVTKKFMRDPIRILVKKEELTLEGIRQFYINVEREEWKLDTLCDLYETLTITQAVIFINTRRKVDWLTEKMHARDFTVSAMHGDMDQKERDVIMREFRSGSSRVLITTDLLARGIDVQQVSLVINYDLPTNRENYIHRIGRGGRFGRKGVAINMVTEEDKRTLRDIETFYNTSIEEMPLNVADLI

Target: eIF4A (UniProt P60843)
Test: binding assay
Settings: Toeprinting: 40 mM Tris-OAc pH 7.5, 110 mM KCl, 1.7 mM Mg(OAc)2, 2 mM DTT, 0.25 mM spermidine, 0.4 mM GMP-PNP, 0.1 mM EDTA; 2 mM ATP:Mg or AMP-PNP:Mg; 40 nM mRNA; letters put together from the description

“GGGAGACAAGAAUAAAACGCUCAAGGGGACCGCGCCCCACAUGUGAGUGAGGCCGAAACGUAGAUUCGACAGGAGGCUCACAACAGGCAGAUC [a4Aa20]” showed a Kd of 40 nM.

The exact form of at least one protein or probe is not confirmed.
